Experimental findings from publication doi:10.1101/2023.05.09.539743 (bioRxiv, 2023) are described below.

No constants are given. Whether binding was seen depends on the method and setting. In cells and extracts the contact can be indirect. A yes stands for co-enrichment or nearness to the bait. Other partners may have been found. Sequences can lack the tags named with a protein.

In the test the target is T1, MYC-tagged ZFC3H1 N-terminal variant Z1^1-209(WT) (human) (UniProt O60293).
T1 sequence: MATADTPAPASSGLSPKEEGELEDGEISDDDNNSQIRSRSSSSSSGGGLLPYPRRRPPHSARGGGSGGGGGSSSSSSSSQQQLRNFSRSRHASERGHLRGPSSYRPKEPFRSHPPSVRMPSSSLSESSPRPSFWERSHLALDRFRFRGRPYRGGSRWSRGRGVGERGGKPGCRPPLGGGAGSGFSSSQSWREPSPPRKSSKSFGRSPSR
Kind of test: affinity purification with mass spectrometry.

B1: ARS2 (endogenous) (protein, UniProt Q9BXP5 1-876)
chain: MGDSDDEYDRRRRDKFRRERSDYDRSRERDERRRGDDWNDREWDRGRERRSRGEYRDYDRNRRERFSPPRHELSPPQKRMRRDWDEHSSDPYHSGYEMPYAGGGGGPTYGPPQPWGHPDVHIMQHHVLPIQARLGSIAEIDLGVPPPVMKTFKEFLLSLDDSVDETEAVKRYNDYKLDFRRQQMQDFFLAHKDEEWFRSKYHPDEVGKRRQEARGALQNRLRVFLSLMETGWFDNLLLDIDKADAIVKMLDAAVIKMEGGTENDLRILEQEEEEEQAGKPGEPSKKEEGRAGAGLGDGERKTNDKDEKKEDGKQAENDSSNDDKTKKSEGDGDKEEKKEDSEKEAKKSSKKRNRKHSGDDSFDEGSVSESESESESGQAEEEKEEAEEALKEKEKPKEEEWEKPKDAAGLECKPRPLHKTCSLFMRNIAPNISRAEIISLCKRYPGFMRVALSEPQPERRFFRRGWVTFDRSVNIKEICWNLQNIRLRECELSPGVNRDLTRRVRNINGITQHKQIVRNDIKLAAKLIHTLDDRTQLWASEPGTPPLPTSLPSQNPILKNITDYLIEEVSAEEEELLGSSGGAPPEEPPKEGNPAEINVERDEKLIKVLDKLLLYLRIVHSLDYYNTCEYPNEDEMPNRCGIIHVRGPMPPNRISHGEVLEWQKTFEEKLTPLLSVRESLSEEEAQKMGRKDPEQEVEKFVTSNTQELGKDKWLCPLSGKKFKGPEFVRKHIFNKHAEKIEEVKKEVAFFNNFLTDAKRPALPEIKPAQPPGPAQILPPGLTPGLPYPHQTPQGLMPYGQPRPPILGYGAGAVRPAVPTGGPPYPHAPYGAGRGNYDAFRGQGGYPGKPRNRMVRGDPRAIVEYRDLDAPDDVDFF
Consider B1, for which the binding entry is recorded as “binds”.
